In test [1] the target is T1, monomeric RANK (monomeric fragment of RANK) (UniProt O35305).
T1 sequence (looked up): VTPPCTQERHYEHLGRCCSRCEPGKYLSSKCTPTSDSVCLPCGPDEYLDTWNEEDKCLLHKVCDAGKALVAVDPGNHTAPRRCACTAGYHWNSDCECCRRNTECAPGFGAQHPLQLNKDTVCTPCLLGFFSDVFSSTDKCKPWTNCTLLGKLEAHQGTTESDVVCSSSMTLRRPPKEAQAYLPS
Put plainly: SPR (FIG. 5A).

Test [2] addresses T1, monomeric RANK (monomeric fragment of RANK). Description: yeast surface display, titration with RANK (FIG. 3B).

Results are given in words; binding and its absence hold for the method and conditions named. Some results given as binding are weak or reduced against the parent protein; the word gives no strength.

B1: WT-SM htRANKL (homotrimeric mouse RANKL with the solubility mutations C220S/I246E) (ligand)
chain: QPFAHLTINAASIPSGSHKVTLSSWYHDRGWAKISNMTLSNGKLRVNQDGFYYLYANISFRHHETSGSVPTDYLQLMVYVVKTSEKIPSSHNLMKGGSTKNWSGNSEFHFYSINVGGFFKLRAGEEISIQVSNPSLLDPDQDATYFGAFKVQDID
notes: The format differs by assay; also called WT-SM RANKL; WT htRANKL
In the case of B1, the binding entry in test [1] is recorded as “binds”.

B2: KQFH htRANKL (K194E, Q236H, F269Y, H270Y) (ligand)
chain: QPFAHLTINAASIPSGSHKVTLSSWYHDRGWAEISNMTLSNGKLRVNQDGFYYLYANISFRHHETSGSVPTDYLHLMVYVVKTSEKIPSSHNLMKGGSTKNWSGNSEYYFYSINVGGFFKLRAGEEISIQVSNPSLLDPDQDATYFGAFKVQDID
notes: also called RANK^high variant
Consider B2, for which the binding entry in test [2] is recorded as “binds”.
